Results taken from patent publication US20260207616A1, “COMBINATION THERAPIES FOR TREATMENT OF HEARING DISORDERS” (GATEWAY BIOTECHNOLOGY, INC., priority 2023, published 2026).

System: tinnitus positive mice
Assay: go/no-go trials, sound-based avoidance detection (SBAD) in noise-induced tinnitus mice
Format: in vivo
Conditions: intraperitoneal injection
Procedure: With reference to FIGS. 1A-1D, single drug treatment of tinnitus is evaluated using the go/no-go methodology further elaborated upon in Example 4. With reference to FIGS. 2A-2B, multi drug treatment of tinnitus is evaluated using the go/no-go methodology further elaborated upon in Example 4. […] Using a shuttle box divided into two compartments, mice were trained to cross from side to side with sound cues in the “Go” trials and remain still in the absence of sound in the “No-Go” trials for 15 days. […] The sound cues were randomly played as white noise or narrow-band noise at 8,10,12.5,16, and 29 kHz with sound intensities randomly at 75, 80, or 85 dB. […] Additionally, a hurdle was added on training 11 to reinforce the training. After the 15th training day, mice were tested for 3 days to obtain a baseline score to be compared after noise exposure, as well as retraining for 3 days. Following the successful completion of training so that mice reached a high percentage of success in the trials, the mice were exposed to a noise-induced trauma for tinnitus over a two day period. To ensure that the mice still have their hearing, one ear was protected with an ear plug, while the other ear was exposed to the noise. The mice were placed in a sound booth where they were exposed to 120 dB broadband noise at 4-25 kHz for two hours. […]

Compound	correct rate in the Go trial (ESM 300 mg/kg)	correct rate in the Go trial (CBZ 5 and 8 mg/kg)
CCC1(C)CC(=O)NC1=O (centres unmarked) [ESM, ethosuximide]	~100%	
NC(=O)N1c2ccccc2C=Cc2ccccc21 [CBZ, carbamazepine]		~100%
